# Measured values from the supplement of paper PMC12067093, “Discovery and optimisation of a covalent ligand for TRIM25 and its application to targeted protein ubiquitination” (Chemical Science, 2025).
# Protein sequences, listed by entry. Tags and fused reporters are not part of them. Lines headed by an entry give the natural chain unless they say otherwise; changes in a name come on top.
# UniProt Q5T4S7, whole entry, looked up: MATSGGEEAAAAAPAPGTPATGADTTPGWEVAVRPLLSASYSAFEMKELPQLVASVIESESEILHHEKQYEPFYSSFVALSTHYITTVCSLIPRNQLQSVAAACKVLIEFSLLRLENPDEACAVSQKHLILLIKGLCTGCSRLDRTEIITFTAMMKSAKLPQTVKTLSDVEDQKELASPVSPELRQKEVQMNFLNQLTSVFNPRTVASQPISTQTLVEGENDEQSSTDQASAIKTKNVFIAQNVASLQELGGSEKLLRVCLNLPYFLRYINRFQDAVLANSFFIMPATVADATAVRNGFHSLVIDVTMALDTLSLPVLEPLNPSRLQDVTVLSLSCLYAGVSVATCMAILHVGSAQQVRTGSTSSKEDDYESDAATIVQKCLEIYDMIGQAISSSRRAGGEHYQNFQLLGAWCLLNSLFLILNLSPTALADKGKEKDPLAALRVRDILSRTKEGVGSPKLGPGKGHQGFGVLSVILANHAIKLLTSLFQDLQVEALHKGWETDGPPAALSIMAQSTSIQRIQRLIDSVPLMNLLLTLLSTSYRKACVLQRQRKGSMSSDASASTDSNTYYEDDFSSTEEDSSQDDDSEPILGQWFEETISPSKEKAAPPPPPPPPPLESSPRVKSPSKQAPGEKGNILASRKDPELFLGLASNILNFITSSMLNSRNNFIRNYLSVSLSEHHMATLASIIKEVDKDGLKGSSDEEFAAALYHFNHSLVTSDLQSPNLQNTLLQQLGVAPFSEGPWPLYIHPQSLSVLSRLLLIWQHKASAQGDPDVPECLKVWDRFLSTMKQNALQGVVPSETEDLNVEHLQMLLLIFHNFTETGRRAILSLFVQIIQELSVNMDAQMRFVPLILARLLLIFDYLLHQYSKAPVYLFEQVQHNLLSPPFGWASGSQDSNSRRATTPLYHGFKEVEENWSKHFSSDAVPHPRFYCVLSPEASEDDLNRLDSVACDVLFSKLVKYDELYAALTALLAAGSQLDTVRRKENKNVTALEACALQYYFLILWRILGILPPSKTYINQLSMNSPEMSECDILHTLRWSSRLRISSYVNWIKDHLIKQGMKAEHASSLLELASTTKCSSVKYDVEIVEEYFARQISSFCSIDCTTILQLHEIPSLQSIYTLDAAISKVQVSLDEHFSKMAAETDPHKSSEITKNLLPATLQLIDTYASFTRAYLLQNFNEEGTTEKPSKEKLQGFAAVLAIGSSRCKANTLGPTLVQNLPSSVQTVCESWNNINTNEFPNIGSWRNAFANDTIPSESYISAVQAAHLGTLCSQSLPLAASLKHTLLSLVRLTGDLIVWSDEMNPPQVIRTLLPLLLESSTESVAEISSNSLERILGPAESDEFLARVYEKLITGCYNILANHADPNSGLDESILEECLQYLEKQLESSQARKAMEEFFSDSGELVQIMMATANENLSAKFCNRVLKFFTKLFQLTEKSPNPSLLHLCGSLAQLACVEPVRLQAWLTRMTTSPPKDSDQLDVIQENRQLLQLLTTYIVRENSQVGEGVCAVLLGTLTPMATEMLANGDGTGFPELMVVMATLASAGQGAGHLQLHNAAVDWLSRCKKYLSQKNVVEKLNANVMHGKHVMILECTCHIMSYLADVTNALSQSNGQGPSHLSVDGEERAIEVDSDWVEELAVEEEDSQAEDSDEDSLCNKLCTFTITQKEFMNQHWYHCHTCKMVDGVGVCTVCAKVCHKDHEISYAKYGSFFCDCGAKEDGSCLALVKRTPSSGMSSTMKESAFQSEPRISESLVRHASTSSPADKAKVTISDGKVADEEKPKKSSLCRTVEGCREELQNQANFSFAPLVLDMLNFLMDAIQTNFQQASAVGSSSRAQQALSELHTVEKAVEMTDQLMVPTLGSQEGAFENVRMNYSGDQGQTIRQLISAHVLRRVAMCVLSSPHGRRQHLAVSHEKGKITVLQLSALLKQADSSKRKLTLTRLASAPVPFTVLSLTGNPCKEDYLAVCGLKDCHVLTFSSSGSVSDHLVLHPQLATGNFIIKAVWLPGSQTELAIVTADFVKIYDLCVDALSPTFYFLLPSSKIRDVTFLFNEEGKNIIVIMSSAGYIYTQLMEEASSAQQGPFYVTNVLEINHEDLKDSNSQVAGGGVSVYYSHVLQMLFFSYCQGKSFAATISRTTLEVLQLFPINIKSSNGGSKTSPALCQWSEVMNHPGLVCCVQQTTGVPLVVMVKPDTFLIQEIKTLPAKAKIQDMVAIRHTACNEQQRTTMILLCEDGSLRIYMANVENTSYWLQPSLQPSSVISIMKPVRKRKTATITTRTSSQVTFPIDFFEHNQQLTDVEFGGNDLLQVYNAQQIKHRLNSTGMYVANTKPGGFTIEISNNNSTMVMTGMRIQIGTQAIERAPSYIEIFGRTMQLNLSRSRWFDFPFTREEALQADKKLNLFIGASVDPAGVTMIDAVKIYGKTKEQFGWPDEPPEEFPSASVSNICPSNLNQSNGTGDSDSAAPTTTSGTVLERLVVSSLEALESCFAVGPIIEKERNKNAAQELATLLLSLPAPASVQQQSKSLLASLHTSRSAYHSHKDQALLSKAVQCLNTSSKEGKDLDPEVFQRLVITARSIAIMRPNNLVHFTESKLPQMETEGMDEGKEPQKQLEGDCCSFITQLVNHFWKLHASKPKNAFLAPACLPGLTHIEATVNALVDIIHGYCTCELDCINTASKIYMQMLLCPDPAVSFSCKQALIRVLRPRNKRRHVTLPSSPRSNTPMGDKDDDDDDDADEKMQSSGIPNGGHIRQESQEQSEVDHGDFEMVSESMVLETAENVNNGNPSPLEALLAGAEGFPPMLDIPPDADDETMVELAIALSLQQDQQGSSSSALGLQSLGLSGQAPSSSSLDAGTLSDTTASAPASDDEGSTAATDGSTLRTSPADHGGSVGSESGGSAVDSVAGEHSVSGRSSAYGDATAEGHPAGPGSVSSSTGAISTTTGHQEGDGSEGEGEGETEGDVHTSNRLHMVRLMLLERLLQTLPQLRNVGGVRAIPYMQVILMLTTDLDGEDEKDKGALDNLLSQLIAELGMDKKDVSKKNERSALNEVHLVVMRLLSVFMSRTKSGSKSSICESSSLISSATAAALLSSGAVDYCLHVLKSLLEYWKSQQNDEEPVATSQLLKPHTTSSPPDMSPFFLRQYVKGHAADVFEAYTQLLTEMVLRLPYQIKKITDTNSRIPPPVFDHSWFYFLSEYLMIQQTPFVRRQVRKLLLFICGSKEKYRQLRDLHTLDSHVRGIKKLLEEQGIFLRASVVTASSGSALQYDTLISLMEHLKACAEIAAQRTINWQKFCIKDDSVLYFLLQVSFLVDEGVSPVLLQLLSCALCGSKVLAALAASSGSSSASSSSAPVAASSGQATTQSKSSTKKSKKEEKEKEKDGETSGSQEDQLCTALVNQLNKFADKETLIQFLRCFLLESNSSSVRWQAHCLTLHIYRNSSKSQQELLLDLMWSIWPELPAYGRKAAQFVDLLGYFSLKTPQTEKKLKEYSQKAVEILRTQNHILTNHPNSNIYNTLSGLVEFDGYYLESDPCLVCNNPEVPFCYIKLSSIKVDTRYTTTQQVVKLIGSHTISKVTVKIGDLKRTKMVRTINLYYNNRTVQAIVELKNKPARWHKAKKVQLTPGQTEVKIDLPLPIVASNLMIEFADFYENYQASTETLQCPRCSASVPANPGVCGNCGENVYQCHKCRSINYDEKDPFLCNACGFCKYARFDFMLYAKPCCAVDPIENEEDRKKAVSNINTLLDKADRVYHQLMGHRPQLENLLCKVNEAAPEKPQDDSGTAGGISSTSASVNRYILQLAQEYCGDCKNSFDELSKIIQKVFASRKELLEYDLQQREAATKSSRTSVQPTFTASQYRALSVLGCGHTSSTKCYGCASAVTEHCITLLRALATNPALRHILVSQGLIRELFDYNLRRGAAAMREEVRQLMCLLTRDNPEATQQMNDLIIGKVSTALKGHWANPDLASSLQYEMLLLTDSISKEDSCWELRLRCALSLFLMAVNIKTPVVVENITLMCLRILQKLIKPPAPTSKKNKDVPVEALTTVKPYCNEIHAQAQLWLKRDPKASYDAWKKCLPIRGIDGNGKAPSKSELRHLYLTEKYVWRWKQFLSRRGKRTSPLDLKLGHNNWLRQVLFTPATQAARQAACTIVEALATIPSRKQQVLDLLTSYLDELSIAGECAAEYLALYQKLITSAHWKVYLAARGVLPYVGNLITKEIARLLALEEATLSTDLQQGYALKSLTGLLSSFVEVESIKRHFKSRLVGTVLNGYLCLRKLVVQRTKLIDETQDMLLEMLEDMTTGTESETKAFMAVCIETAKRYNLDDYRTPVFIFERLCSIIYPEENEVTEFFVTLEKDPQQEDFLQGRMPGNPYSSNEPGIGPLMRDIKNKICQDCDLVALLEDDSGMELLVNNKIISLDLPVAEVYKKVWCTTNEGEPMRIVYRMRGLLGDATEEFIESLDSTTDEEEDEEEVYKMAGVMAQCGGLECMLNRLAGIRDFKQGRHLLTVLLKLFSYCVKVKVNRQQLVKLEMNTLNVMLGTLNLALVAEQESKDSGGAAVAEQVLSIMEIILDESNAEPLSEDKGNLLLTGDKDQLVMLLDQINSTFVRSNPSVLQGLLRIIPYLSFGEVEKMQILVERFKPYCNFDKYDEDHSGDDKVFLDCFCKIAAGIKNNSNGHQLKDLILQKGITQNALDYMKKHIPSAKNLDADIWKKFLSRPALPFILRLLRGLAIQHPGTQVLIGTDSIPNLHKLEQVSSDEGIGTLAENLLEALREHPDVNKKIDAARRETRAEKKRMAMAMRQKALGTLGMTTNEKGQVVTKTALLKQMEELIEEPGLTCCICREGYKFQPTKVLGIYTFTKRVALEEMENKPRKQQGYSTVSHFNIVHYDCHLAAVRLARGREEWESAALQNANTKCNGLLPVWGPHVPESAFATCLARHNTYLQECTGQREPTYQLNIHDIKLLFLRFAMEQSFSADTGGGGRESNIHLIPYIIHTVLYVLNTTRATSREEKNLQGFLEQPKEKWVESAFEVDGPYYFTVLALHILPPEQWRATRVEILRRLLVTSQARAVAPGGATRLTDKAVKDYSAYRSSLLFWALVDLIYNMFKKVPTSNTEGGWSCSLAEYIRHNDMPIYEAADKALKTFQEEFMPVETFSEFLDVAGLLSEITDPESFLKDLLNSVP
# UniProt Q9BZF9: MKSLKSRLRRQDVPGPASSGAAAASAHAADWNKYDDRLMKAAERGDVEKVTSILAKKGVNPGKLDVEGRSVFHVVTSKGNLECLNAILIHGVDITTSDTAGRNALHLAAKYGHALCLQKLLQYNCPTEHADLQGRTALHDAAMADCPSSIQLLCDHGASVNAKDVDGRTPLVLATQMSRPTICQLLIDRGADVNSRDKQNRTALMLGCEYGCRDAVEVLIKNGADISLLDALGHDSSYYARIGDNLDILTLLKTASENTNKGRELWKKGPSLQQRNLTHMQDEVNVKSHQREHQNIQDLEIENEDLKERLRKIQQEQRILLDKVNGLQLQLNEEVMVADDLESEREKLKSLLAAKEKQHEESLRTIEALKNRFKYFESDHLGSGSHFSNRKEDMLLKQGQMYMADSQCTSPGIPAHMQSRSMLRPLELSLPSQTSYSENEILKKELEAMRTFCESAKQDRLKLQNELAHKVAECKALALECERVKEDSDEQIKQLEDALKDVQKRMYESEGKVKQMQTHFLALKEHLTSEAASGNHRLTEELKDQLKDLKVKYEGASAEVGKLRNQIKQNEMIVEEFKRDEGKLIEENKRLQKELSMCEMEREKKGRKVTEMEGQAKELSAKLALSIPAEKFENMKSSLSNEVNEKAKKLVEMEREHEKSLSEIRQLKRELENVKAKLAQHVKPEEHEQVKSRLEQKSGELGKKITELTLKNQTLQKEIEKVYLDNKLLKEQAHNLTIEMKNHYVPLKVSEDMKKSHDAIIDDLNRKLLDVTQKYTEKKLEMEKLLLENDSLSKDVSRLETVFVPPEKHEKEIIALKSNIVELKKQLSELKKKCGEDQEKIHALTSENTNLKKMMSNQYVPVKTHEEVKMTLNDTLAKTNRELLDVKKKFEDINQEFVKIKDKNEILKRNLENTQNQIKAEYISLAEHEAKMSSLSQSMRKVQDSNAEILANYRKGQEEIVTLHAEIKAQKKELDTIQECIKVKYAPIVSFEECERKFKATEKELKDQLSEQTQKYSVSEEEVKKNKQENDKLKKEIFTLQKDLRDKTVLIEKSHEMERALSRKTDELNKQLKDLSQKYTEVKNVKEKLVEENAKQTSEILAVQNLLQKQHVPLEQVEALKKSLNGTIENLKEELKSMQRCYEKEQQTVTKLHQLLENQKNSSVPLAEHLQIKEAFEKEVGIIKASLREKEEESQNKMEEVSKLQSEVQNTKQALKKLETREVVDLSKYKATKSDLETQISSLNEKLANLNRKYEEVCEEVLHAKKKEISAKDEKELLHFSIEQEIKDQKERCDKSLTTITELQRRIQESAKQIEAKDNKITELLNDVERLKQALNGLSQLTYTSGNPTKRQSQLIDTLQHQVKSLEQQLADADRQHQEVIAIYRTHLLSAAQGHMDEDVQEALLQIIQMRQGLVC
# The other results are listed elsewhere or left out.
# Compound: CC1Cc2ccccc2N1C(=O)C1CCCN(C1)C(=O)CCl (mixture of isomers) [TRIM25 ligand 11 (diastereomer mixture)]
# Experiment: probe-labelled cysteine peptide fold change vs DMSO (competition) (log2 fold change); higher = less target engagement (more negative = stronger competition)
# Conditions: THP-1, incubation time: 4 h
# 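Also: competitive chemoproteomic profiling in live THP-1 cells with an iodoacetamide desthiobiotin (IA-DTB) probe, comparing probe-labelled peptide intensities in compound-treated cells against DMSO-treated controls.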
Target,probe-labelled cysteine peptide fold change (10 µM),probe-labelled cysteine peptide fold change (50 µM)
UBR4_Q5T4S7_3765_VYHQLMGHRPQLENLLCK (UniProt Q5T4S7),-0.146,-0.115
TYMP_P19971_293_CVGHALEVEEALLCMDGAGPPDLR (UniProt P19971),0.157,0.192
UBE2I_P63279_138_QILLGIQELLNEPNIQDPAQAEAYTIYCQNR (UniProt P63279),0.0466,0.171
UBA6_A0AVT1_231_EIFISNITQANPGIVTCLENHPHK,0.0815,-0.105
UBR2_Q8IWV8_112_VGEPTYSCR (UniProt Q8IWV8),-0.172,0.0842
UBR4_Q5T4S7_3872_CYGCASAVTEHCITLLR (UniProt Q5T4S7),0.308,-0.0564
UBE4B_O95155_113_SQSMDIDGVSCEK (UniProt O95155),-0.00543,-0.147
UBA6_A0AVT1_581_CLANLRPLLDSGTMGTK,-0.0328,-0.0957
UBE3D_Q7Z6J8_52_TPEGCTEIQLPAEVR (UniProt Q7Z6J8),0.0843,0.182
UACA_Q9BZF9_980_ELDTIQECIK (UniProt Q9BZF9),-0.146,-0.243
UBA1_P22314_632_SIPICTLK (UniProt P22314),-0.0494,-0.0618
UAP1L1_Q3KQV9_57_AAEACAR (UniProt Q3KQV9),0.0309,0.171
UBL5_Q9BZL1_6_MIEVVCNDR (UniProt Q9BZL1),-0.083,0.106
UBP1_Q9NZI7_409_EDLVQICGAADGIR (UniProt Q9NZI7),-0.0773,-0.11
UBR2_Q8IWV8_1360_ILSDEDKPLFGPLPCR (UniProt Q8IWV8),-0.139,-0.289
